Values of other authors, collected in US20120258972A1, “Composition and Methods for Treating Hair Loss” (priority 2011, published 2012).
At least one structure is not confirmed: it was looked up by name or label, or the drawing left a doubt.

Tested on: men with androgenic alopecia
Conditions: ketoconazole shampoo 2% versus 2% minoxidil regimen

Nc1cc(N2CCCCC2)nc(N)[n+]1[O-] [minoxidil]
Hair density, size, and proportion of anagen follicles: improved almost similarly
